{"source": "PubChem BioAssay AID1259327, Drosophila RNAi Screening Center – 2017", "purpose": "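Data from controls in screens of zinc and manganese toxicity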", "system": "Drosophila S2R+ cells", "reagent": "long dsRNA against Drosophila genes", "time to read-out": "5 days (water added on day 4, read one day later)", "treatment": "water added as vehicle, no metal, one day before read-out", "measurement": "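Total ATP measured by luciferase light, scaled to plate mean, duplicates averaged, then z-scored across plates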", "scale": "ATP z-score: higher = more total ATP than typical wells; ATP luminescence: higher = more total ATP", "rule for the call": "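Called active when the ATP z-score exceeds 1.5 or falls below -1.5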", "calls": "active = hit: ATP up or down; inactive = no clear ATP change", "note": "Shown is a random part of about 3,100 reagents tested. 378 of them (12%) were called active. 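Hits include both directions; z-score sign shows ATP rise or fall; raw luminescence values are not plate-normalised.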 No sequences are given here. Not stated in the record: the amount of reagent."}
{"Gene": "Tsp26A", "amplicon": "DRSC03135", "ATP z-score, duplicate mean": 0.184, "ATP luminescence, replicate 1 (RLU)": 7.59e5, "ATP luminescence, replicate 2 (RLU)": 7.33e5, "activity call": "inactive"}
{"Gene": "Loxl1", "amplicon": "DRSC14303", "ATP z-score, duplicate mean": -1.08, "ATP luminescence, replicate 1 (RLU)": 6.26e5, "ATP luminescence, replicate 2 (RLU)": 6.87e5, "activity call": "inactive"}
{"Gene": "ACXE", "amplicon": "DRSC00847", "ATP z-score, duplicate mean": 0.499, "ATP luminescence, replicate 1 (RLU)": 7.74e5, "ATP luminescence, replicate 2 (RLU)": 7.84e5, "activity call": "inactive"}
{"Gene": "CG10171", "amplicon": "DRSC09711", "ATP z-score, duplicate mean": -0.503, "ATP luminescence, replicate 1 (RLU)": 6.49e5, "ATP luminescence, replicate 2 (RLU)": 7.06e5, "activity call": "inactive"}
{"Gene": "CG10171", "amplicon": "DRSC26279", "ATP z-score, duplicate mean": 0.59, "ATP luminescence, replicate 1 (RLU)": 9.32e5, "ATP luminescence, replicate 2 (RLU)": 9.16e5, "activity call": "inactive"}
{"Gene": "wus", "amplicon": "DRSC20278", "ATP z-score, duplicate mean": -0.354, "ATP luminescence, replicate 1 (RLU)": 7.04e5, "ATP luminescence, replicate 2 (RLU)": 6.35e5, "activity call": "inactive"}
{"Gene": "wus", "amplicon": "DRSC39483", "ATP z-score, duplicate mean": -0.751, "ATP luminescence, replicate 1 (RLU)": 4.10e5, "ATP luminescence, replicate 2 (RLU)": 3.96e5, "activity call": "inactive"}
{"Gene": "MRP", "amplicon": "DRSC02942", "ATP z-score, duplicate mean": 0.00164, "ATP luminescence, replicate 1 (RLU)": 4.53e5, "ATP luminescence, replicate 2 (RLU)": 5.07e5, "activity call": "inactive"}
{"Gene": "MRP", "amplicon": "DRSC39503", "ATP z-score, duplicate mean": -1.02, "ATP luminescence, replicate 1 (RLU)": 3.92e5, "ATP luminescence, replicate 2 (RLU)": 3.79e5, "activity call": "inactive"}
{"Gene": "CG5021", "amplicon": "DRSC10469", "ATP z-score, duplicate mean": 2.02, "ATP luminescence, replicate 1 (RLU)": 1.11e6, "ATP luminescence, replicate 2 (RLU)": 1.21e6, "activity call": "active"}
{"Gene": "CG5021", "amplicon": "DRSC39741", "ATP z-score, duplicate mean": 0.645, "ATP luminescence, replicate 1 (RLU)": 4.74e5, "ATP luminescence, replicate 2 (RLU)": 5.46e5, "activity call": "inactive"}
{"Gene": "Gr47a", "amplicon": "DRSC06221", "ATP z-score, duplicate mean": -1.26, "ATP luminescence, replicate 1 (RLU)": 5.12e5, "ATP luminescence, replicate 2 (RLU)": 4.98e5, "activity call": "inactive"}
{"Gene": "Gr47a", "amplicon": "DRSC39508", "ATP z-score, duplicate mean": 0.0866, "ATP luminescence, replicate 1 (RLU)": 4.84e5, "ATP luminescence, replicate 2 (RLU)": 4.34e5, "activity call": "inactive"}
{"Gene": "Or49b", "amplicon": "DRSC07494", "ATP z-score, duplicate mean": 1.07, "ATP luminescence, replicate 1 (RLU)": 7.17e5, "ATP luminescence, replicate 2 (RLU)": 7.16e5, "activity call": "inactive"}
{"Gene": "E23", "amplicon": "DRSC00593", "ATP z-score, duplicate mean": -0.688, "ATP luminescence, replicate 1 (RLU)": 6.64e5, "ATP luminescence, replicate 2 (RLU)": 6.43e5, "activity call": "inactive"}
{"Gene": "E23", "amplicon": "DRSC25491", "ATP z-score, duplicate mean": 0.901, "ATP luminescence, replicate 1 (RLU)": 1.03e6, "ATP luminescence, replicate 2 (RLU)": 8.89e5, "activity call": "inactive"}

2 of these entries, reformatted:
wus [DRSC39483]
- ATP z-score, duplicate mean: -0.751
- ATP luminescence, replicate 1 (RLU): 4.10e5
- ATP luminescence, replicate 2 (RLU): 3.96e5
- activity call: inactive

MRP [DRSC02942]
- ATP z-score, duplicate mean: 0.00164
- ATP luminescence, replicate 1 (RLU): 4.53e5
- ATP luminescence, replicate 2 (RLU): 5.07e5
- activity call: inactive

The list goes on.
{"Gene": "Lgr1", "amplicon": "DRSC16675", "ATP z-score, duplicate mean": 0.231, "ATP luminescence, replicate 1 (RLU)": 3.25e5, "ATP luminescence, replicate 2 (RLU)": 7.48e5, "activity call": "inactive"}
{"Gene": "Lgr1", "amplicon": "DRSC39668", "ATP z-score, duplicate mean": -0.574, "ATP luminescence, replicate 1 (RLU)": 4.17e5, "ATP luminescence, replicate 2 (RLU)": 4.36e5, "activity call": "inactive"}
{"Gene": "Tsp42Eq", "amplicon": "DRSC06180", "ATP z-score, duplicate mean": -0.22, "ATP luminescence, replicate 1 (RLU)": 6.19e5, "ATP luminescence, replicate 2 (RLU)": 5.80e5, "activity call": "inactive"}
{"Gene": "Esp", "amplicon": "DRSC16664", "ATP z-score, duplicate mean": -1.46, "ATP luminescence, replicate 1 (RLU)": 2.18e5, "ATP luminescence, replicate 2 (RLU)": 6.44e5, "activity call": "inactive"}
{"Gene": "botv", "amplicon": "DRSC05949", "ATP z-score, duplicate mean": -3.39, "ATP luminescence, replicate 1 (RLU)": 3.24e5, "ATP luminescence, replicate 2 (RLU)": 4.16e5, "activity call": "active"}
{"Gene": "botv", "amplicon": "DRSC28034", "ATP z-score, duplicate mean": -0.573, "ATP luminescence, replicate 1 (RLU)": 5.46e5, "ATP luminescence, replicate 2 (RLU)": 9.31e5, "activity call": "inactive"}
{"Gene": "Amnionless", "amplicon": "DRSC00317", "ATP z-score, duplicate mean": -0.141, "ATP luminescence, replicate 1 (RLU)": 6.81e5, "ATP luminescence, replicate 2 (RLU)": 7.01e5, "activity call": "inactive"}
{"Gene": "List", "amplicon": "DRSC06520", "ATP z-score, duplicate mean": 1.19, "ATP luminescence, replicate 1 (RLU)": 7.80e5, "ATP luminescence, replicate 2 (RLU)": 6.74e5, "activity call": "inactive"}
{"Gene": "List", "amplicon": "DRSC39801", "ATP z-score, duplicate mean": -1.61, "ATP luminescence, replicate 1 (RLU)": 3.99e5, "ATP luminescence, replicate 2 (RLU)": 3.31e5, "activity call": "active"}
